Source: paper PMC10431626
Results are given in words; binding and its absence hold for the method and conditions named. In cells and extracts the contact can be indirect. Some entries that bind do so weakly or less than the wild type.

Amino acid sequences for entries named in this document (tags omitted). A change or cut given only in a name is not applied to a line headed by its entry.
UniProt Q15717: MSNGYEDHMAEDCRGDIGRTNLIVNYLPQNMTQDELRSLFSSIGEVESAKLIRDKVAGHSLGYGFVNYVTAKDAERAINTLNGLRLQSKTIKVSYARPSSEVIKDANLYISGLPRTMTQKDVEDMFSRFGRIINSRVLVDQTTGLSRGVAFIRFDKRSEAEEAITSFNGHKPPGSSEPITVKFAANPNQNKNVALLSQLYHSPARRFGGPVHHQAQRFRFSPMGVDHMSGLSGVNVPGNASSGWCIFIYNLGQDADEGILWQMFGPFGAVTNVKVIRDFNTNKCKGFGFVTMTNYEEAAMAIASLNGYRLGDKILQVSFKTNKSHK
UniProt Q05655: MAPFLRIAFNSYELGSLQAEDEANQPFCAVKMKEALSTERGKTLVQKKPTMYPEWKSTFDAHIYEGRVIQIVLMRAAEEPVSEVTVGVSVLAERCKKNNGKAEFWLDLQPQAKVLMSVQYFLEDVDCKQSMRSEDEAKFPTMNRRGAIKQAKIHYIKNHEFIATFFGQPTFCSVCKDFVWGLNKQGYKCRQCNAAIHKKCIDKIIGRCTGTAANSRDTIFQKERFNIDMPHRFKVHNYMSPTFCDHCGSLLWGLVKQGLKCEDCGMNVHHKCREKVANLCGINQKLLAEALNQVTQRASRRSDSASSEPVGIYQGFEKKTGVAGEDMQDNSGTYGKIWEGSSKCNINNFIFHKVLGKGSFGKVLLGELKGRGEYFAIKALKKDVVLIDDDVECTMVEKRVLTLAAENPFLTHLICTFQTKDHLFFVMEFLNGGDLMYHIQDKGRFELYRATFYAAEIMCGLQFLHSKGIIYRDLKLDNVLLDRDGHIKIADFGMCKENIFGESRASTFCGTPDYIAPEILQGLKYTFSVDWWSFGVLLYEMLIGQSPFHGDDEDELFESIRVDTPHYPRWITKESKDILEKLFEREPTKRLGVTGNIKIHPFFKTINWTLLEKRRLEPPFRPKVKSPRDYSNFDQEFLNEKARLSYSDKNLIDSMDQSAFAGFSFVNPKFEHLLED

Columns and labels:
[1] = target: human antigen R (HuR) (human (endogenous in Huh7.5)) (UniProt Q15717); test: co-IP; endogenous proteins; anti-HuR or anti-PKC-δ antibody on Protein G Sepharose, Huh7.5 lysate in polysome lysis buffer (100 mM KCl, 5 mM MgCl2, 10 mM HEPES pH 7.0, 0.5% NP-40, 1 mM DTT, RNasin), 4°C; mock or HCV-JFH1 virus infected cells, 48h; Western blot
[2] = target: protein kinase C (PKC)-δ (human (endogenous in Huh7.5)) (UniProt Q05655); test: as above

Row | binding [1] | binding [2] | Substance
1 | binds |  | protein kinase C (PKC)-δ (from UniProt Q05655 1-676) (enzyme)
2 |  | binds | human antigen R (HuR) (from UniProt Q15717 1-326)
